In PMC12367601:
Results are given in words; binding and its absence hold for the method and conditions named. Binding seen in cells or lysates may run through a third protein. Some results given as binding are weak or reduced against the parent protein; the word gives no strength.

Protein sequences, listed by entry. Tags and fused reporters are not part of them.
UniProt Q93074: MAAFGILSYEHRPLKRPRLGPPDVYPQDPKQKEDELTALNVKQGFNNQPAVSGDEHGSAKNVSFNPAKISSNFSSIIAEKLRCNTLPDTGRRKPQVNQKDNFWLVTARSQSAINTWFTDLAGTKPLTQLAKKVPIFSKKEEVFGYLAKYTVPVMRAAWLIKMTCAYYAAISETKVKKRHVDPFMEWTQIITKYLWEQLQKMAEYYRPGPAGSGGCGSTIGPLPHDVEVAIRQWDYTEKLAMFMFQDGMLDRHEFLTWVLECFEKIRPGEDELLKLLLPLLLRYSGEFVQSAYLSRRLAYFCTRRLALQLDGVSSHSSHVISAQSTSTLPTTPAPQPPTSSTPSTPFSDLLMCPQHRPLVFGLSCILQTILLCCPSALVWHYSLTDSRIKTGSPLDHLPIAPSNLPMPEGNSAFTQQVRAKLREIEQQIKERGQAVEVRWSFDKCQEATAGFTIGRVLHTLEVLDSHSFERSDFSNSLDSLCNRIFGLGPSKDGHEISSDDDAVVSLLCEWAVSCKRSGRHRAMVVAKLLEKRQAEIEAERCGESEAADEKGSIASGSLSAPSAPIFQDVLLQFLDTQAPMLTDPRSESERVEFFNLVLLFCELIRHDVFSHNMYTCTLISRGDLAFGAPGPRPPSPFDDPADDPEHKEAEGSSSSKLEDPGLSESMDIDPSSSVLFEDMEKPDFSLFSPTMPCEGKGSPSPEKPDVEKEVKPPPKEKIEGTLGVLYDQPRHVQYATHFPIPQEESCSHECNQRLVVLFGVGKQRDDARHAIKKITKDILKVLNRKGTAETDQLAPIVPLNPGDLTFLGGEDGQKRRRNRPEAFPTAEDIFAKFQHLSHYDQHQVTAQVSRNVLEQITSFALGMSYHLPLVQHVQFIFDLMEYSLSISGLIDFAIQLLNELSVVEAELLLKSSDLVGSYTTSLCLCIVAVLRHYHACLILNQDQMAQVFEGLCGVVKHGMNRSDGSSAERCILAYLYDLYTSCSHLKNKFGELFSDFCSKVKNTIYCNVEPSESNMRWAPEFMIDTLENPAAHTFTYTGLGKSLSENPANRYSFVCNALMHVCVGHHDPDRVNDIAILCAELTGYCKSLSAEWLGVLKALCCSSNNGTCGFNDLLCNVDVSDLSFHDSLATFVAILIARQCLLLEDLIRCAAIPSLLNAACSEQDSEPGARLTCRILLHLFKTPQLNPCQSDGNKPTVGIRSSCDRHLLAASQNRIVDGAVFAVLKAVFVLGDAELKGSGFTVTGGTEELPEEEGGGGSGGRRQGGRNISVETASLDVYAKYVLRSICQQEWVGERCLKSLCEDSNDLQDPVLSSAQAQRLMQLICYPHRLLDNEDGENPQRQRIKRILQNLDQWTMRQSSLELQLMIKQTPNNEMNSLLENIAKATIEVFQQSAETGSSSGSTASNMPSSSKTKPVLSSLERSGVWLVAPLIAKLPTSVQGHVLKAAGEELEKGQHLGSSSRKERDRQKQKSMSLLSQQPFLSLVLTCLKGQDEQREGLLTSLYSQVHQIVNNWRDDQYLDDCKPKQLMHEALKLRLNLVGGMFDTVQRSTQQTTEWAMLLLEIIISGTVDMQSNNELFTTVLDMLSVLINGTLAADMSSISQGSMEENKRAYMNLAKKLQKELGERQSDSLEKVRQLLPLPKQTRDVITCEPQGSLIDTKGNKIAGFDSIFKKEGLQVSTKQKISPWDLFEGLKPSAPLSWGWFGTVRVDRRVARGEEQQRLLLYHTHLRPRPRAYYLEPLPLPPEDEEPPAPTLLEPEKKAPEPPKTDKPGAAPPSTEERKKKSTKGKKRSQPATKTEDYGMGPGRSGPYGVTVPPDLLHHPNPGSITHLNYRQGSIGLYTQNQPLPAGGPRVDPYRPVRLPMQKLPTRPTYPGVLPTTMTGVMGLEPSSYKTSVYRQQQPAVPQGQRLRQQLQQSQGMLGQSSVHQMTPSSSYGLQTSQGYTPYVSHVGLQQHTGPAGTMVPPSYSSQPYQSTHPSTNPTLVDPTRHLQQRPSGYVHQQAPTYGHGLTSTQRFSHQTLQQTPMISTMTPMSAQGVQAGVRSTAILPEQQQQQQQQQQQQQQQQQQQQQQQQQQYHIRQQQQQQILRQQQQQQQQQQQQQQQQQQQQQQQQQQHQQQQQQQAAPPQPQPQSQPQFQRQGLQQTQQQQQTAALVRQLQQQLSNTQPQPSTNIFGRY
UniProt P46937: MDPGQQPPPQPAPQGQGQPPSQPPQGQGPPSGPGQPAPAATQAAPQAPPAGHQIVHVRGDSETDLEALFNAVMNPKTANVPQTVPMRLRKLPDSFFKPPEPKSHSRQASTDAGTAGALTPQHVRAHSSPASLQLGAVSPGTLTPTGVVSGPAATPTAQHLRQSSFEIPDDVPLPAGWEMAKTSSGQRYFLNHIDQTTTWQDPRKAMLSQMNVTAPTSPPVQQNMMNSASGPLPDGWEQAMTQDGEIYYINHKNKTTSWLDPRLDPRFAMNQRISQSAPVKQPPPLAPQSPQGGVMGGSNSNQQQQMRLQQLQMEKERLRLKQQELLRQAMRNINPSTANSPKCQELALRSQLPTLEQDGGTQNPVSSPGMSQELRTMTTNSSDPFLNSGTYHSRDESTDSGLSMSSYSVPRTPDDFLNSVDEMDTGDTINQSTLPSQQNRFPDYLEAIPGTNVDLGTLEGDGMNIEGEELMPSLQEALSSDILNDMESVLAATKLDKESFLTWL

Target: Mediator complex subunit 12 (MED12) (human (endogenous in NSCLC cell lines)) (UniProt Q93074)
Test: co-IP; lysates from the cell lines; 1 mg lysate in Pierce IP lysis buffer, anti-MED12 antibody (1:100) with Protein A/G PLUS-Agarose at 4 °C, four washes; immunoblot with anti-YAP

YAP (from UniProt P46937 1-504) was tested, and the binding was “binds”.
